Experimental data taken from PubChem BioAssay AID493014 (National Center for Advancing Translational Sciences (NCATS), 2011).
In all, about 340,000 compounds went through this assay and about 170 (0.05%) were called active. Inconclusive results, whose numbers are uncertain, are shown with a selection of clear calls. The call rests on the fitted dose curve; in most records, active means well fitted inhibition curve with a large enough effect in the signal ratio, with a control signal flat (not every such curve was filed as active); inconclusive means small, poorly fitted or top-dose-only effect, or effect the other way, or a change in a side signal; inactive means flat fitted curve, though single readings scatter; the % refers to the signal ratio. Potencies beside an inconclusive call are fits to weak or partial responses and may not hold up.

assay: qHTS Assay to Find Inhibitors of Chronic Active B-Cell Receptor Signaling; settings: ABC-DLBCL IkBa-CBG/CBR reporter, luminescence ratio (green luciferase fused to IkBa over red control in TMD8 lymphoma cells), 4 h; activity change, negative = inhibition: at 46.1 µM (top of the series);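 on activity change, negative = inhibition: plate controls were basal doxycycline-induced cells for no effect and cells given 10 µM MG132 for full effect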
How it was run: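 Cell line TMD8 (human ABC DLBCL), stably expressing tet-inducible CBG68-IkBa fusion and CBR; IMDM/0.5% FBS; cpd up to 46 uM; dox induction, 4 h, 37C/5% CO2; dual luminescence; green/red ratio; MG132 control.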
Potency means the concentration at half of the fitted maximal effect.

SMILES	activity change, negative = inhibition	Potency
COc1cc(-c2noc(C)c2C(=O)NCCc2c[nH]c3ccccc23)cc(OC)c1OC	inconclusive: -25.4%	
O=C(Nc1nccs1)C(Br)C(Br)c1ccccc1 (stereo unspecified)		inconclusive: 25.1 µM [falling, single point]
Cc1ccc(C(=O)N(C)c2nnc(-c3ccncc3)s2)cc1	inconclusive: 7.43%	
O=[N+]([O-])c1ccccc1S(=O)(=O)c1ccccc1[N+](=O)[O-]	inconclusive: 2.6%	
Cc1ccccc1/C(N)=N/OC(=O)/C=C/c1ccccc1		inconclusive: 29.1 µM [falling, partial curve]
CCCNC(=O)c1ccc2c(=O)c(O)c(-c3ccc(Cl)c([N+](=O)[O-])c3)[nH]c2c1	inconclusive: 8.21%	
O=C1NC[C@@H](c2ccccc2)OC(=O)[C@H](Cc2ccc(F)cc2)C/C=C\C[C@@H]1CC(=O)N(CCO)Cc1ccccc1	inconclusive: -6.95%	
COc1ccccc1CN=Cc1[nH]c2ccc(Br)c(Cl)c2c1O	inconclusive: -1.1%	
Cc1ccn2c(Nc3ccccc3C)c(-c3ccccn3)nc2c1	inactive: -4.52%	
COc1ccc(C(CC(=O)Nc2ccccc2OC)n2cccc2)cc1 (stereo unspecified)	inconclusive: -9.23%	
CCSc1nnc(NC(=O)c2csc(C)c2)s1	inactive: 2.69%	
O=C(CSc1nnc(-c2ccccn2)n1Cc1ccccc1)Nc1ccc2c(c1)OCO2		inconclusive: 20.6 µM [falling, partial curve, poor fit]
O=C(NC1CCCCC1)c1cc(Nc2cccc(C(F)(F)F)c2)nc2ccccc12		inconclusive: 0.501 µM [falling, partial curve, poor fit]
O=C(NCCc1csc(-c2ccccc2)n1)c1ccc(Br)o1	inactive: 1.15%	
Clc1ccccc1-c1nn2c(-c3ccncc3)nnc2s1	inconclusive: -2.03%	
COc1ccc2oc(C(=O)N3CCN(C/C=C/c4ccccc4)CC3)c(C)c2c1		inconclusive: 23.1 µM [falling, single point]
O=c1ccc(-c2nc3ccccc3n2Cc2ccc(Cl)cc2)c[nH]1		inconclusive: 15.8 µM [falling, partial curve, poor fit]
COc1ccc(-c2cc(C(=O)N(C)Cc3ccccc3)no2)cc1OC		inconclusive: 28.2 µM [falling, single point]
O=C(CN1CCN(Cc2ccccc2)CC1)N1CCN(c2ccccc2)CC1	inactive: -8%	
Cc1cc(C)c2c(N)c(C(=O)NNC(=O)c3ccccc3)sc2n1		inconclusive: 17.8 µM [falling, single point]
CN(Cc1cccc(C(F)(F)F)c1)C(=O)C1CCC(=O)N(CC2CCCCC2)C1 (stereo unspecified)	inconclusive: 1.73%	
CCOC(=O)c1ccc(NC(=O)CCn2nnc3ccccc32)cc1	inactive: -0.254%	
CC(=O)Nc1ccc(S(=O)(=O)N(C)CC(=O)N2CCN(C(=O)c3ccco3)CC2)cc1	inactive: 0.257%	
CCN(CC)S(=O)(=O)c1ccc(NC(=O)c2cccs2)cc1		inconclusive: 7.94 µM [falling, partial curve]
O=c1c([N+](=O)[O-])cccn1Cc1cccc(Cl)c1		inconclusive: 0.501 µM [falling, partial curve, poor fit]
Cc1cc(N2CCCCC2)nc2ccc(NC(=O)c3ccc(Br)o3)cc12	inconclusive: -1.49%	

4 consecutive records already listed, quoted:
SMILES	activity change, negative = inhibition	Potency
CCOC(=O)c1ccc(NC(=O)CCn2nnc3ccccc32)cc1	inactive: -0.254%	
CC(=O)Nc1ccc(S(=O)(=O)N(C)CC(=O)N2CCN(C(=O)c3ccco3)CC2)cc1	inactive: 0.257%	
CCN(CC)S(=O)(=O)c1ccc(NC(=O)c2cccs2)cc1		inconclusive: 7.94 µM [falling, partial curve]
O=c1c([N+](=O)[O-])cccn1Cc1cccc(Cl)c1		inconclusive: 0.501 µM [falling, partial curve, poor fit]

Further structures:

SMILES	activity change, negative = inhibition	Potency
C=CCn1c(CSc2nc3ccccc3s2)nnc1SCC(=O)NCc1ccccc1		inconclusive: 29.1 µM [falling, single point]
COc1ccc(/C=C/C(=O)Nc2cc(C(F)(F)F)ccc2Cl)cc1OC	inconclusive: -6.47%	
CCOc1cccc(-c2cc(C(=O)N/N=C/c3ccc(OC)c(CN4CCOCC4)c3)c3ccccc3n2)c1	inactive: 9.64%	
Cc1ccc(S(=O)(=O)N2CCN(CC(=O)N/N=C/c3ccc(Br)s3)CC2)cc1	inconclusive: 4.39%	
Cc1ccc(-c2nc3ccccc3s2)cc1NC(=S)NC(=O)c1cccc2ccccc12	inconclusive: 6.21%	
Cn1nc(C(=O)NNC(=O)c2ccc(Cl)cc2)ccc1=O		inconclusive: 18.4 µM [falling, partial curve]
COc1ccc(CN(C)C(=O)c2ccc(OCC(=O)N3CCOCC3)c(OC)c2)cc1	inconclusive: -8.83%	
COc1ccccc1N1C(=NC(=O)COc2ccccc2)SC2CS(=O)(=O)CC21 (stereo unspecified)	inactive: -8.25%	
O=C(NCCNc1ccc(Cl)cc1[N+](=O)[O-])c1cccnc1	inactive: 3.02%	
CCOC(=O)c1c(N)n(-c2cccc(OC)c2)c2nc3ccccc3nc12	inconclusive: 29.3%	
O=[N+]([O-])c1cccc(NC(=S)NCCc2ccccc2)c1	inconclusive: 17.2%	
CCNc1nc(NC(C)C)nc(OCC)n1	inconclusive: -4.41%	
CCOC(=O)Nc1ccc(S(=O)(=O)N(C)C(C)C)cc1	inconclusive: 17.9%	
CC(C)Nc1cc(C(F)(F)F)nc(-c2ccccn2)n1		inconclusive: 25.1 µM [falling, single point]
Cn1c(N)c(C(=O)COC(=O)CCC2CCCCC2)c(=O)n(C)c1=O	inconclusive: 19.3%	
C/C(=N\NC(=O)c1c(-c2ccccc2Cl)noc1C)c1cccc(NC(=O)C(C)C)c1	inconclusive: -1.09%	
Oc1ccc(-c2nc3ccccn3c2NCc2ccco2)cc1	inconclusive: -1.59%	
O=C(NCc1ccco1)c1cc2nc(-c3ccc4c(c3)OCO4)cc(C(F)(F)F)n2n1		inconclusive: 11.2 µM [falling, partial curve, poor fit]
CCn1c2ccc(C)cc2c2nnc(NN)nc21	inactive: 5.48%	
CCOC(=O)c1[nH]cnc1C(=O)Nc1ccc([N+](=O)[O-])cc1	inconclusive: -36.7%	
Cc1nc(SCc2cccc(F)c2)[nH]c(=O)c1C#N	inconclusive: -0.607%	
C=CCNc1nc(Nc2ccc(OC)cc2OC)nc(OCC)n1	inconclusive: -2.9%	
Cc1ccccc1CN(C)C(C)C(=O)Nc1ccccc1F (stereo unspecified)	inconclusive: 21.2%	
COc1cccc(CC(=O)Nc2sc3c(c2C(N)=O)CCCC3)c1	inactive: -11%	
COc1cc(NC(=O)CSc2nnc(NC(C)C)s2)cc(OC)c1OC	inconclusive: 0.653%	
